These are yes or no findings as the source states them, for the method shown. For part of these data: In cells and extracts the contact can be indirect. Some entries that bind do so weakly or less than the wild type. Where a sequence is shown, tags or fusion partners need not be part of it.
Assays:
[1] = target: eIF4A (endogenous in HeLa cells) (human (HeLa cells)) (UniProt P60842); experiment: summary in the discussion
[2] = target: eIF4A (endogenous in HeLa cells) (human (HeLa cells)) (UniProt P60842); experiment: heading of the results
[3] = target: eIF4A (endogenous in HeLa cells) (human (HeLa cells)) (UniProt P60842); experiment: anti-HA co-immunoprecipitation from HeLa extracts, Western blot

The chains behind the UniProt entries cited, without tags or fusion partners. Residues count along the entry.
UniProt P60842, residues 2-406: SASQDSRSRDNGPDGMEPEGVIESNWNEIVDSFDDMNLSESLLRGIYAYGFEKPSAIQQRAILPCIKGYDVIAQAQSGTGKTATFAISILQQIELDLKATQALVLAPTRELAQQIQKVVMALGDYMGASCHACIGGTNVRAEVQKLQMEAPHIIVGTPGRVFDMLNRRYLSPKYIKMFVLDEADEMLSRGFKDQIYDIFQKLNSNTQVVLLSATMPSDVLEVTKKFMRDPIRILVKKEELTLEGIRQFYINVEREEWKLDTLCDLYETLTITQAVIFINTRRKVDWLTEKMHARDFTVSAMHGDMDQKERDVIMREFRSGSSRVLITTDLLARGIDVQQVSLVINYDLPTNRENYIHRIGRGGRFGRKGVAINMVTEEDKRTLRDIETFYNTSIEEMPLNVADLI

binding [1]: binds
binding [2]: binds
binding [3]: binds
B1: HA-tagged p97 (N-terminal three copies of HA; pcDNA3-HA-p97) (protein, not shown: small tags and cut ends)
chain: VESAIAEGGASRFSASSGGGGSRGAPQHYPKTAGNSEFLGKTPGQNAQKWIPARSTRRDDNSAANNSANEKERHDAIFRKVRGILNKLTPEKFDKLCLELLNVGVESKLILKGVILLIVDKALEEPKYSSLYAQLCLRLAEDAPNFDGPAAEGQPGQKQSTTFRRLLISKLQDEFENRTRNVDVYDKRENPLLPEEEEQRAIAKIKMLGNIKFIGELGKLDLIHESILHKCIKTLLEKKKRVQLKDMGEDLECLCQIMRTVGPRLDHERAKSLMDQYFARMCSLMLSKELPARIRFLLQDTVELREHHWVPRKAFLDNGPKTINQIRQDAVKDLGVFIPAPMAQGMRSDFFLEGPFMPPRMKMDRDPLGGLADMFGQMPGSGIGTGPGVIQDRFSPTMGRHRSNQLFNGHGGHIMPPTQSQFGEMGGKFMKSQGLSQLYHNQSQGLLSQLQGQSKDMPPRFSKKGQLNADEISLRPAQSFLMNKNQVPKLQPQITMIPPSAQPPRTQTPPLGQTPQLGLKTNPPLIQEKPAKTSKKPPPSKEELLKLTETVVTEYLNSGNANEAVNGVREMRAPKHFLPEMLSKVIILSLDRSDEDKEKASSLISLLKQEGIATSDNFMQAFLNVLDQCPKLEVDIPLVKSYLAQFAARAIISELVSISELAQPLESGTHFPLFLLCLQQLAKLQDREWLTELFQQSKVNMQKMLPEIDQNKDRMLEILEGKGLSFLFPLLKLEKELLKQIKLDPSPQTIYKWIKDNISPKLHVDKGFVNILMTSFLQYISSEVNPPSDETDSSSAPSKEQLEQEKQLLLSFKPVMQKFLHDHVDLQVSALYALQVHCYNSNFPKGMLLRFFVHFYDMEIIEEEAFLAWKEDITQEFPGKGKALFQVNQWLTWLETAEEEESEEEAD
